This assay has as its target Prohibitin 2 (rat (endogenous in A7r5)) (UniProt Q5XIH7). Kind of assay: co-IP; 500 ug cell lysate with anti-PHB2 antibody at 4°C for 2 h, then protein G Plus-Agarose at 4°C overnight; western blot for PHB1; control without the anti-PHB2 antibody; A7r5 cells, also treated with siPHB2. For orientation: Immunoblotting shows a protein as a band on a membrane.

Protein sequences, listed by entry. Tags and fused reporters are not part of them.
UniProt Q5XIH7: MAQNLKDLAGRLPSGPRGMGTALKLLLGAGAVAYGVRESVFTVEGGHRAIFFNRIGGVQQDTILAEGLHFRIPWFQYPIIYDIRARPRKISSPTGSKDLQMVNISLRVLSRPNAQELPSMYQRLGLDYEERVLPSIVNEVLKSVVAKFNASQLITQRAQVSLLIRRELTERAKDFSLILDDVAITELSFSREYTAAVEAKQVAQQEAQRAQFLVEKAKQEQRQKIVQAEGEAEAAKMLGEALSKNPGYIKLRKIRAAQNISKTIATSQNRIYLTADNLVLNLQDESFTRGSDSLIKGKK

Results are given in words; binding and its absence hold for the method and conditions named. Binding seen in cells or lysates may run through a third protein. Some binding calls cover weakened binding; strength is not graded here.

B1: Prohibitin 1 (protein, UniProt P67779 1-272)
chain: MAAKVFESIGKFGLALAVAGGVVNSALYNVDAGHRAVIFDRFRGVQDIVVGEGTHFLIPWVQKPIIFDCRSRPRNVPVITGSKDLQNVNITLRILFRPVASQLPRIYTSIGEDYDERVLPSITTEILKSVVARFDAGELITQRELVSRQVSDDLTERAATFGLILDDVSLTHLTFGKEFTEAVEAKQVAQQEAERARFVVEKAEQQKKAAIISAEGDSKAAELIANSLATAGDGLIELRKLEAAEDIAYQLSRSRNITYLPAGQSVLLQLPQ
Turning to B1, the binding entry is “binds”.

The record behind these values is publication PMC11960914.
